One experiment has as its target T1, GST–14-3-3β (mouse) (UniProt Q9CQV8).
T1 sequence: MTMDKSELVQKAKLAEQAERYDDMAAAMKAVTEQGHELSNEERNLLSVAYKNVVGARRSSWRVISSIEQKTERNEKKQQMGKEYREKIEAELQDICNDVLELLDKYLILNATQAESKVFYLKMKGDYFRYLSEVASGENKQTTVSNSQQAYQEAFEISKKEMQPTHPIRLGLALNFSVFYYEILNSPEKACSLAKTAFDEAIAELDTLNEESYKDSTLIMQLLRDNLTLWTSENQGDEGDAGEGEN
Briefly: pull-down; GST–14-3-3β on Glutathione Sepharose 4B; EGFP-tagged proteins in HeLa cell lysates; immunoblotting; only the target purified. On the technique in general: In western blotting, separated proteins are transferred to a membrane and probed.

A further experiment concerns the target T2, KGN–14-3-3β (mouse) (UniProt Q9CQV8).
T2 sequence: T1 sequence
Kind of experiment: split reporter; BiFC (Kusabira-Green) between KGN–14-3-3β and KGC–A/B/C/DA-Raf in living MDCK cells, 48 h after transfection, 37°C.

No constants are given. Whether binding was seen depends on the method and setting. Binding seen in cells or lysates may run through a third protein. For some assays here: Binding calls can cover weak binding; strength is not graded here. For some assays here: Where a sequence is shown, tags or fusion partners need not be part of it.

As for EGFP–DA-Raf (mouse), the binding result with GST–14-3-3β (mouse) is “no binding”. KGC–DA-Raf (mouse): in the experiment with KGN–14-3-3β (mouse), the binding entry is reported as “binds weakly”.
